In patent publication US20040208842A1, “Antimicrobial cleansing compositions and methods of use” (priority 2001, published 2004):
Some results were stated once for a whole list of compounds, not compound by compound.

Tested on: Enterococcus faecalis
Assay: Minimal Bactericidal Concentration (MBC) of EDTA and neomycin in 50 mM Tris
Type: cell-based
Settings: Ent. faecalis
Excerpt: The organisms of this study were isolated from human burn patients. They included strains of methicillin resistant Staphylococcus aureus, and vancomycin resistant strains of Pseudomonas aeruginosa and Enterococcus faecalis. The bacterial isolates were propagated in or on Brain Heart Infusion broth (BHI), Mueller-Hinton Broth (MHB), blood agar (BA), Mueller-Hinton agar (MHA), enterococcus agar (EA), or 2× nutrient agar (2×NA).

neomycin
Decrease of MBC value when EDTA and neomycin combined compared to individually administered: at least 75%
